# US20120065367A1 (priority 2009, published 2012)
# Assay: general procedure: peptide synthesis; WSC·HCl/HOBt
# Conditions: late stage modification step
Substance,step yield [%],"step yield (head-to-tail ring, sequence written open) [%]"
TMEC-[N-hexanoate-c(Arg-Gly-Asp-D-Phe-Lys)]2,25,
D-Pen-N-hexanoate-cRGDfK,,30
